Source: patent publication US20050058639A1
Results are given in words; binding and its absence hold for the method and conditions named. Some results given as binding are weak or reduced against the parent protein; the word gives no strength.

Chains of the proteins cited; added tags and fusions are not shown. Lines headed by an entry give the natural chain unless they say otherwise; changes in a name come on top. Residues count along the entry.
UniProt P80075, residues 24-99: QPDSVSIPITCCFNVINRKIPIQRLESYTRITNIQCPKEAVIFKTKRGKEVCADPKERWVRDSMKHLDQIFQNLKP
UniProt P51671, residues 24-97: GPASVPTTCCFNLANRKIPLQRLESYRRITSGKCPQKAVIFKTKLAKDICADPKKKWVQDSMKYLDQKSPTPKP
UniProt P80098, residues 24-99: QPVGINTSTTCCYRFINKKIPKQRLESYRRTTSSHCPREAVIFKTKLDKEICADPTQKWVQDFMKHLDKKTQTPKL
UniProt P13500: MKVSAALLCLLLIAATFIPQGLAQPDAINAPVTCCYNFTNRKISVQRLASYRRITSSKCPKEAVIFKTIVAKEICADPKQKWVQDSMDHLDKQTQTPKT

What was measured:
[1] = target: recombinant human MCP-2 (human) (UniProt P80075); assay: Cross-Reactivity column, ELISA on coated chemokines
human eotaxin (human) = human eotaxin (human) (UniProt P51671); assay: as above
[2] = target: recombinant human MCP-3 (human) (UniProt P80098); assay: as above
[3] = target: human monocyte chemo-attractant protein-1 (MCP-1) (human) (UniProt P13500); assay: Western blot

binding [1] | binding (human eotaxin (human)) | binding [2] | binding [3] | Binder
binds | binds | binds | – | anti-MCP-1 mAb 3.2 (antibody, V domains shown) VH: QVQLVQSGAEVKKPGASVKVSCKVSGYTLSELSMHWVRQAPGKGLEWMGGFDPEDGEIIHAQKFQGRVTMTEDTSTDTAYMELSSLRSEDTAVYYCATGDFWSGYYLDWWGQGTLVTVSS VL: EIVMMQSPATLSVSPGERATLSCRASQSVNSNLAWYQQKPGQAPRLLINGASTRATGIPARFSGSGSGTEFTLTISSLQSEDFAIYYCQQYNDWPTFTFGGGTKVEINR
– | – | – | binds | anti-MCP-1 mAb 1.8.1 (antibody, V domains shown) VH: QVQLVQSGAEVKKPGASVKVSCKVSGHIFTELSIHWVRQAPGKGLEWMGGFDPEDGETIYAQKFQGRVTMTEDTSTDTVYMELSSLRSEDTAVYYCATNDFWSGYFDYWGQGTLVTVSS VL: DIVMTQSPGSLAVSLGERATINCKSSQSILFRSNNKNYLTWYQQKPGQPPKLLIYWASIRESGVPDRFSGSGSGSNFTLTITSLQAEDVAIYYCQQYYSSPWTFGQGTKVEIKR
